Test results reported in PMC9010950.

Target: T1, carboxypeptidase N1 (CPN1), overexpressed from pCMV3-SP-Flag-CPN1 (UniProt P15169)
T1 sequence: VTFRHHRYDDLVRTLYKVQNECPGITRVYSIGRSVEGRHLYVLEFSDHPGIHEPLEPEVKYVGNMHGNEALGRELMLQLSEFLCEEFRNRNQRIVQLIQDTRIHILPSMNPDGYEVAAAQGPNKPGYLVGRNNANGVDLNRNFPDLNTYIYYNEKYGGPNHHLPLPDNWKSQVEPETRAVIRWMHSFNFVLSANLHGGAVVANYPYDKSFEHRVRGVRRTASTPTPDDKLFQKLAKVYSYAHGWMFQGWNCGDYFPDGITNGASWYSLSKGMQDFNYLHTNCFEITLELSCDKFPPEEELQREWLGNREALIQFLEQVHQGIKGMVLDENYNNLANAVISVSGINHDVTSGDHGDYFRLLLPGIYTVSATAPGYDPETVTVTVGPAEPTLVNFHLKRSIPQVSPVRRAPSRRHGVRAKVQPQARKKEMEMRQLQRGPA
Test: affinity purification with mass spectrometry; 293T cells transfected with the CPN1 overexpression plasmid or the empty plasmid; Co-IP Kit (Thermo Fisher Scientific); protein complexes eluted with CPN1 antibody; IgG group as negative control; part of the eluate sent for mass spectrometry

binding: binds
B1: retinoic acid-induced protein 14 (RAI14) (protein, UniProt Q9P0K7 1-980)
chain: MKSLKAKFRKSDTNEWNKNDDRLLQAVENGDAEKVASLLGKKGASATKHDSEGKTAFHLAAAKGHVECLRVMITHGVDVTAQDTTGHSALHLAAKNSHHECIRKLLQSKCPAESVDSSGKTALHYAAAQGCLQAVQILCEHKSPINLKDLDGNIPLLLAVQNGHSEICHFLLDHGADVNSRNKSGRTALMLACEIGSSNAVEALIKKGADLNLVDSLGYNALHYSKLSENAGIQSLLLSKISQDADLKTPTKPKQHDQVSKISSERSGTPKKRKAPPPPISPTQLSDVSSPRSITSTPLSGKESVFFAEPPFKAEISSIRENKDRLSDSTTGADSLLDISSEADQQDLLSLLQAKVASLTLHNKELQDKLQAKSPKEAEADLSFDSYHSTQTDLGPSLGKPGETSPPDSKSSPSVLIHSLGKSTTDNDVRIQQLQEILQDLQKRLESSEAERKQLQVELQSRRAELVCLNNTEISENSSDLSQKLKETQSKYEEAMKEVLSVQKQMKLGLVSPESMDNYSHFHELRVTEEEINVLKQDLQNALEESERNKEKVRELEEKLVEREKGTVIKPPVEEYEEMKSSYCSVIENMNKEKAFLFEKYQEAQEEIMKLKDTLKSQMTQEASDEAEDMKEAMNRMIDELNKQVSELSQLYKEAQAELEDYRKRKSLEDVTAEYIHKAEHEKLMQLTNVSRAKAEDALSEMKSQYSKVLNELTQLKQLVDAQKENSVSITEHLQVITTLRTAAKEMEEKISNLKEHLASKEVEVAKLEKQLLEEKAAMTDAMVPRSSYEKLQSSLESEVSVLASKLKESVKEKEKVHSEVVQIRSEVSQVKREKENIQTLLKSKEQEVNELLQKFQQAQEELAEMKRYAESSSKLEEDKDKKINEMSKEVTKLKEALNSLSQLSYSTSSSKRQSQQLEALQQQVKQLQNQLAECKKQHQEVISVYRMHLLYAVQGQMDEDVQKVLKQILTMCKNQSQKK

These are yes or no findings as the source states them, for the method shown. In cells and extracts the contact can be indirect. Here binding means that the protein was enriched with, or labelled near, the bait; the list need not be complete. Sequences can lack the tags named with a protein.
